Consider 37 compounds from PubChem BioAssay AID2685 (National Center for Advancing Translational Sciences (NCATS), 2010).

SMILES strings stand for the structures. The list shows a part of the results. These are further read-outs of the screen, such as a control signal, another cell line or another target. No call is given for them. Compounds called inactive in the main read-out are mostly missing here. Words in brackets tell the shape of the fitted curve; partial curves, single points and poor fits give uncertain potencies.

The nature of the test: qHTS Assay for Lipid Storage Modulators in Drosophila S3 Cells.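 As to cell number change: cells counted by Cell Tracker Red CMTPX staining in the red channel.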 The conditions noted are these: BODIPY lipid droplet fluorescence, 18-24 h; for cell number change: measured here: cell count max response, cells fed with added oleic acid. In a few lines: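 Drosophila S3 cells loaded with oleic acid (400 uM, as added) and compounds at several concentrations; lipid droplets imaged by 488-nm laser-scanning cytometry, 500–530 nm intensity and object ratio to cell channel. Percent activity normalized to 20 uM Triacsin C.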

The mark [1] stands for this setting: measured here: lipid fluorescence (Fed channel) AC50, cells fed with added oleic acid.
[2] abbreviates: measured here: cell number channel AC50, cells fed with added oleic acid.

With `CCOc1ccc(CN(C)C(C)C(=O)NCCc2ccc(F)cc2)cc1` (configuration not stated), the cell number change worked out at 13.4%. Regarding `O=S(=O)(c1ccc(Cl)cc1)N1CCCc2ccccc21`, the cell number change came to 4.99%. The AC50 under setting [1] is 5.8 µM [falling, full curve]. With `COc1cc(/C=c2\sc3n(c2=O)C(c2ccccc2)C(c2ccccc2)=NN=3)ccc1O` (configuration not stated), the cell number change was -35.8%. The concentration at half-maximal activity (AC50) under setting [2] was 0.82 µM [falling, full curve, poor fit]. Consider `Cc1ccc(NS(=O)(=O)c2cc([N+](=O)[O-])ccc2NNC(=S)Nc2cccc(Cl)c2)c(C)c1`, for which the cell number change is -13.2%. Moreover, the AC50 under setting [1] was 29.1 µM [falling, single point]. As to `COc1ccc(C(=O)Nc2nc3ccccc3[nH]2)cc1`, the cell number change is 15.8%. Consider `COc1cc(NS(=O)(=O)c2ccc(N/C=C(\C=O)c3nc4cc(Cl)ccc4o3)cc2)nc(OC)n1`, for which the cell number change was -9.21%. In addition, under setting [1], the AC50 is 0.00461 µM [rising, full curve, poor fit]. Regarding `COc1cc(C)c(NC(=O)c2cc(C3CC3)nc3c2cnn3C(C)C)cc1OC`, the cell number change is -2.52%. Further, the AC50 under setting [1] is 0.92 µM [rising, partial curve].

For the compound `O=C1CC(c2ccc(Cl)cc2)CC(O)=C1C=NCc1ccc(Cl)c(Cl)c1` (configuration not stated), the cell number change was -71.7%. Under setting [1], the AC50 was 29.1 µM [falling, single point]. As to `CCC(=O)N1CC2(C)CN(C(=O)CC)CC(C)(C1)C2`, the cell number change worked out at 0.759%.

In the case of `Cc1n[nH]c(C)c1N1C(=O)c2cccc3c(Br)ccc(c23)C1=O`, the cell number change is -34.2%. Also, the concentration at half-maximal activity (AC50) under setting [2] is 7.31 µM [falling, partial curve, poor fit]. Also, the concentration at half-maximal activity (AC50) under setting [1] is 6.51 µM [falling, full curve, poor fit]. As to `COc1ccc([C@H]2CC(=O)C=C(c3ccc(CNC(=O)OC(C)(C)C)cc3)C2)cc1`, the cell number change worked out at 0.491%. Also, under setting [2], the half-maximal activity concentration (AC50) is 0.00411 µM [falling, full curve, poor fit]. Under setting [1], the AC50 is 0.00461 µM [falling, full curve, poor fit].

For `COc1cccc(/C=N/NC(=O)c2ccc(COc3ccc(Cl)cc3Cl)o2)c1`, the cell number change was 14.8%. For the compound `Cc1cccc(NC(=S)N/C(=N/S(=O)(=O)c2ccccc2)c2ccccc2)c1`, the cell number change came to 2.11%. The AC50 under setting [1] is 6.51 µM [rising, single point].

On to `CN(C)S(=O)(=O)c1cccc(-c2nnc(-c3ccccc3)o2)c1`, for which the cell number change came out at 148%. Also, under setting [2], the AC50 is 7.31 µM [rising, partial curve]. Further, the AC50 under setting [1] was 2.06 µM [rising, full curve]. On to `Cc1ccc2cccc(NC(=O)C(F)(F)F)c2n1`, for which the cell number change is 33.5%. The half-maximal activity concentration (AC50) under setting [2] was 4.11 µM [rising, partial curve]. `Cc1ccc(CN2C(=O)CCC2C(=O)NCC2CCCO2)cc1` (configuration not stated): the cell number change is -27.6%. Besides, the half-maximal activity concentration (AC50) under setting [1] was 29.1 µM [falling, single point].

As for `COC(=O)c1ccc(Cn2nc(C)cc2C)cc1`, the AC50 under setting [1] is 6.51 µM [rising, single point]. `COc1ccc(Cn2nnnc2C(C(C)C)N(Cc2ccco2)Cc2cccs2)cc1` (configuration not stated): the cell number change was -24%. For the same compound, the AC50 under setting [1] was 7.31 µM [rising, partial curve]. Turning to `CC(C)c1ccc(-n2nc3ccc(N)cc3n2)cc1`, the half-maximal activity concentration (AC50) under setting [2] was 2.06 µM [falling, partial curve, poor fit] and the AC50 under setting [1] is 0.00517 µM [falling, full curve, poor fit]. For the compound `Fc1ccc(CNc2ncnc3c2cnn3-c2ccccc2)cc1`, the cell number change was -48.2%. Besides, under setting [2], the AC50 is 18.4 µM [falling, partial curve]. Under setting [1], the AC50 is 1.46 µM [rising, full curve]. On to `CC(CCc1ccccc1)NC(=O)/C=C/c1ccccc1` (configuration not stated), for which the cell number change is -10.8%. Moreover, the AC50 under setting [1] was 3.66 µM [rising, full curve, poor fit].

For `CCc1ccc(NC2CC(=O)N(c3ccc(OC)cc3OC)C2=O)cc1` (configuration not stated), the cell number change was determined as 2.89%. For the same compound, the half-maximal activity concentration (AC50) under setting [1] is 6.51 µM [rising, single point]. For the compound `Cc1ccc(O)c(C(=O)c2cc(C#N)c(=O)n(-c3c(C)n(C)n(-c4ccccc4)c3=O)c2)c1`, the cell number change worked out at 22.7%. Besides, the AC50 under setting [1] is 29.1 µM [rising, partial curve, poor fit].

`c1ccc2c(c1)nc1n2C2(N3CCOCC3)CCCC2C1N1CCOCC1` (configuration not stated): the cell number change is -27%. In addition, the AC50 under setting [1] was 32.6 µM [falling, single point].

For `Cc1n[nH]c(C)c1Cc1c(F)cccc1Cl`, the cell number change stood at 42.4%. The half-maximal activity concentration (AC50) under setting [2] is 5.17 µM [rising, full curve]. For the same compound, the half-maximal activity concentration (AC50) under setting [1] was 29.1 µM [falling, single point]. Turning to `CN(CCc1ccccn1)C(=O)CCc1nnc(CCCc2ccccc2)o1`, the cell number change came out at 15.1%. Besides, the AC50 under setting [1] was 29.1 µM [rising, single point]. Take `COc1ccc(Cl)cc1NS(=O)(=O)c1cc(Cl)ccc1OC`: the cell number change is -3.94%. The AC50 under setting [1] is 0.58 µM [falling, single point]. On to `CCOc1ccc(Br)cc1S(=O)(=O)NCc1ccc(S(N)(=O)=O)cc1`, for which the cell number change came to 157%.

Take `CCCOc1ccc(N2C(=O)CC(N(CCc3ccccc3)C(=O)c3ccccc3)C2=O)cc1` (configuration not stated): the cell number change was -36.5%. For the same compound, under setting [2], the AC50 was 20.6 µM [falling, single point]. For the same compound, the concentration at half-maximal activity (AC50) under setting [1] was 16.4 µM [falling, partial curve, poor fit]. `COc1ccc(Nc2cc(C)nc3ncnn23)c(OC)c1`: the cell number change was -11.2%. The half-maximal activity concentration (AC50) under setting [1] was 6.51 µM [falling, partial curve, poor fit].

As to `Cc1ccc2nc3c(c(Nc4ccc5c(c4)OCCO5)c2c1)CCC3`, the AC50 under setting [1] is 0.731 µM [rising, single point].

With `CC(C)(C)OC(=O)N1CCN(C(=O)c2[nH]cnc2C(=O)NCC(=O)OCc2ccccc2)CC1`, the cell number change turned out to be 28.1%. Also, the AC50 under setting [2] is 0.184 µM [rising, full curve, poor fit].

As to `CCCCCCC(C)n1[nH]c(=O)c2c(C)cc(=O)[nH]c21` (configuration not stated), the cell number change was -95.6%. Under setting [2], the AC50 was 29.1 µM [falling, single point]. As to `COc1ccc(CCNc2c(C)c(C)nc3ncnn23)cc1`, the AC50 under setting [1] is 1.84 µM [falling, partial curve, poor fit].

Regarding `CCOc1ccccc1N1C(=O)CC(Sc2ncccc2C(=O)O)C1=O` (configuration not stated), the AC50 was 6.51 µM [falling, single point] under setting [2] and 6.51 µM [falling, single point] under setting [1]. As to `CC(C)(C)C1N=C(c2ccc3ccccc3c2)OC1=O` (configuration not stated), the cell number change was -3.73%. Under setting [1], the concentration at half-maximal activity (AC50) is 0.206 µM [rising, full curve, poor fit].

Take `CS(=O)(=O)N(CC(=O)N/N=C/c1cccc2c1OCCO2)c1ccccc1Br`: the cell number change stood at 11%. The AC50 under setting [1] is 0.461 µM [rising, full curve, poor fit].
